The source gives many values for each of these; only a part stands here.
Test system: distal small bowel gene expression
Assay: RNA sequencing / transcriptional analysis of small bowel 56 days after ICR (2′-FL signature response)
Assay type: in vivo, mouse
Description: Luminal small bowel contents were expressed into AllProtect Tissue Reagent (Qiagen Inc, CA). Bacterial DNA was extracted using the AllPrep DNA/RNA Mini Kit (Qiagen Inc, CA), according to kit instructions and prior to sequencing (described below). Small bowel tissue samples for RNA were placed into RNA Later (Life Technologies, NY). RNA extraction was accomplished following Qiagen RNeasy Plus Kit instruction (Qiagen Inc, CA). All nucleic acid samples were then stored at -80 Celsius until sequenced (described below). Transcriptional analysis was carried out on resected and harvested small bowel samples obtained from operated mice taken to 8 weeks. Murine RNA sequencing libraries were prepared from approximately 1.5 μg RNA using the TruSeq RNA Sample Preparation Kit (Illumina, Calif.) and sequenced using the HiSeq 2000 Sequencing System (Illumina, Calif.) with single-end 50 bp reads. Following removal of primers and barcodes, sequences were aligned to the mm10 genome using reference annotations from UCSC (Rosenbloom et al. (2015) Nucleic acids research 43: […]-681) (n=36,186 entities). Aligned reads were quantified and used to compute reads per kilobase per million mapped reads (RPKM); raw counts were then normalized using the DESeq algorithm and each harvested sample was baselined to its own resected sample. A filter was applied to the data, requiring at least three reads in all samples of at least one of the four experimental conditions (n=14,489 entities). The data discussed in this publication have been deposited in NCBI's Gene Expression Omnibus and are accessible through NCBI Gene Expression Omnibus (GEO) Series accession number GSE72590. Edgar et al. (2002) Nucleic acids research 30: 207-210. In order to characterize the impact of 2'-FL supplementation while accounting for the effect of ileoecal resection, a t-test was applied between resected and harvested samples within control and experimental animals. Significance was set at a p-value of ≤0.05 and a fold change of 3, which generated 2,576 differentially regulated entities across two comparisons. Gene set unions and intersections of the control and experimental gene sets were identified through Venn diagrams. From the master list, the gene list specific to animals supplemented with 2'-FL were removed in order to identify genes differentially regulated only by ICR (n=546 entities); this gene set characterizes the adaptive response. Further, the 2'-FL response (n=2,030 entities) was identified by removing the adaptive response signature described above from the master list, leaving only genes regulated by 2'-FL supplementation after ICR which were not found in the non-supplemented adaptive response. Heatmaps were generated using hierarchical clustering with the Pearson's Centered distance metric and the average linkage rule; both entities and samples were clustered. All genomic analyses described above were performed in Strand NGS (Strand Life Sciences, CA). Gene list functional enrichment was initially discovered using ToppFun, a member of the ToppGene Suite. Chen et al. (2009) Nucleic acids research 37: […]-311. No statistical correction was selected. Gene lists were further analyzed using ClueGO, a plugin for Cytoscape designed to decipher functionally grouped gene ontology and pathway annotation networks. Bindea et al. (2009) Bioinformatics 25: 1091-1093. At the time of data analysis, the annotation files were updated from sources to Jan. 1, 2015. “GO Term Fusion” was enabled to manage ontologic term redundancy and network specificity was set to medium. Results were restricted to pathways with p≤0.05 using Benjamini-Hochberg correction and Kappa scoring was set to 0.4. Biocyc annotations were assigned a rectangle, gene ontology biologic processes were assigned an ellipse, and […] annotations were assigned a diamond shape. No meaning was assigned to size or color. […]

C[C@@H]1O[C@@H](O[C@H]2[C@H](O[C@H]3[C@H](O)[C@@H](O)C(O)O[C@@H]3CO)O[C@H](CO)[C@H](O)[C@@H]2O)[C@@H](O)[C@H](O)[C@@H]1O (stereo partly shown) [2′-FL, 2′-fucosyllactose]
Fold Change (Pre- to Post-op) (gene Atp11a): −6.265 | Fold Change (Pre- to Post-op) (gene Atp13a2): −4.151 | Fold Change (Pre- to Post-op) (gene Atxn1l): −3.373 | Fold Change (Pre- to Post-op) (gene Atxn2): −3.262 | Fold Change (Pre- to Post-op) (gene Atxn2l): −4.941 | Fold Change (Pre- to Post-op) (gene Auts2): −6.286 | Fold Change (Pre- to Post-op) (gene Azi1): −6.343 | Fold Change (Pre- to Post-op) (gene B4galnt4): −3.419 | Fold Change (Pre- to Post-op) (gene B130055M24Rik): −3.6 | Fold Change (Pre- to Post-op) (gene B230344G16Rik): −7.416 | Fold Change (Pre- to Post-op) (gene BC021891): −3.319 | Fold Change (Pre- to Post-op) (gene BC031361): −4.114 | Fold Change (Pre- to Post-op) (gene BC043934): −3.587 | Fold Change (Pre- to Post-op) (gene Bace1): −3.357 | Fold Change (Pre- to Post-op) (gene Bach2os): −3.118 | Fold Change (Pre- to Post-op) (gene Bahcc1): −5.364 | Fold Change (Pre- to Post-op) (gene Bcl9): −8.66 | Fold Change (Pre- to Post-op) (gene Bcl11b): −3.312 | Fold Change (Pre- to Post-op) (gene Bcorl1): −4.655 | Fold Change (Pre- to Post-op) (gene Bcr): −4.246 | Fold Change (Pre- to Post-op) (gene Bdkrb2): −4.961 | Fold Change (Pre- to Post-op) (gene Bend4): −4.095 | Fold Change (Pre- to Post-op) (gene Bgn): −4.162 | Fold Change (Pre- to Post-op) (gene Bicc1): −3.443 | Fold Change (Pre- to Post-op) (gene Bicd1): −4.848 | Fold Change (Pre- to Post-op) (gene Bmp6): −3.399 | Fold Change (Pre- to Post-op) (gene Bmpr2): −7.126 | Fold Change (Pre- to Post-op) (gene Bptf): −3.805 | Fold Change (Pre- to Post-op) (gene Braf): −3.487 | Fold Change (Pre- to Post-op) (gene Brd4): −6.028 | Fold Change (Pre- to Post-op) (gene Brpf3): −3.04 | Fold Change (Pre- to Post-op) (gene Brwd3): −4.326 | Fold Change (Pre- to Post-op) (gene Btbd11): −5.136 | Fold Change (Pre- to Post-op) (gene C1qtnf1): −8.932 | Fold Change (Pre- to Post-op) (gene C2cd3): −3.778 | Fold Change (Pre- to Post-op) (gene C6): −5.385 | Fold Change (Pre- to Post-op) (gene C030034L19Rik): −4.233 | Fold Change (Pre- to Post-op) (gene C77080): −4.128 | Fold Change (Pre- to Post-op) (gene Cachd1): −8.438 | Fold Change (Pre- to Post-op) (gene Cacna1b): −4.254 | Fold Change (Pre- to Post-op) (gene Cacna1c): −5.413 | Fold Change (Pre- to Post-op) (gene Cacna1g): −4.123 | Fold Change (Pre- to Post-op) (gene Cacna2d2): −9.02 | Fold Change (Pre- to Post-op) (gene Cacnb1): −3.777 | Fold Change (Pre- to Post-op) (gene Cacng7): −3.343 | Fold Change (Pre- to Post-op) (gene Cadm3): −4.45 | Fold Change (Pre- to Post-op) (gene Calb2): −5.684 | Fold Change (Pre- to Post-op) (gene Calcoco1): −4.418 | Fold Change (Pre- to Post-op) (gene Camk2a): −4.72 | Fold Change (Pre- to Post-op) (gene Camsap1): −3.101 | Fold Change (Pre- to Post-op) (gene Camsap2): −3.063 | Fold Change (Pre- to Post-op) (gene Camsap3): −3.732 | Fold Change (Pre- to Post-op) (gene Camta2): −5.196 | Fold Change (Pre- to Post-op) (gene Card10): −5.726 | Fold Change (Pre- to Post-op) (gene Card11): −4.334 | Fold Change (Pre- to Post-op) (gene Caskin2): −3.804 | Fold Change (Pre- to Post-op) (gene Cbl): −7.339 | Fold Change (Pre- to Post-op) (gene Cblb): −3.136 | Fold Change (Pre- to Post-op) (gene Cbx6): −3.54 | Fold Change (Pre- to Post-op) (gene Ccbe1): −3.665 | Fold Change (Pre- to Post-op) (gene Ccnd2): −3.093 | Fold Change (Pre- to Post-op) (gene Ccnk): −3.329 | Fold Change (Pre- to Post-op) (gene Cd4): −4.924 | Fold Change (Pre- to Post-op) (gene Cd93): −5.94 | Fold Change (Pre- to Post-op) (gene Cd300lg): −3.318 | Fold Change (Pre- to Post-op) (gene Cdc42bpa): −6.529 | Fold Change (Pre- to Post-op) (gene Cdc42bpb): −4.85 | Fold Change (Pre- to Post-op) (gene Cdc42bpg): −3.131 | Fold Change (Pre- to Post-op) (gene Cdc42ep1): −5.317 | Fold Change (Pre- to Post-op) (gene Cdh2): −4.591 | Fold Change (Pre- to Post-op) (gene Cdh5): −5.117 | Fold Change (Pre- to Post-op) (gene Cdk5r1): −3.831 | Fold Change (Pre- to Post-op) (gene Cdk5r2): −4.645 | Fold Change (Pre- to Post-op) (gene Cdk5rap2): −4.57 | Fold Change (Pre- to Post-op) (gene Cdon): −4.418 | Fold Change (Pre- to Post-op) (gene Ceacam1): −3.435 | Fold Change (Pre- to Post-op) (gene Celf3): −3.115 | Fold Change (Pre- to Post-op) (gene Celsr2): −7.304 | Fold Change (Pre- to Post-op) (gene Cep164): −4.079 | Fold Change (Pre- to Post-op) (gene Cep170b): −5.544 | Fold Change (Pre- to Post-op) (gene Cep250): −4.807 | Fold Change (Pre- to Post-op) (gene Cers6): −4.036 | Fold Change (Pre- to Post-op) (gene Cfd): −3.425 | Fold Change (Pre- to Post-op) (gene Cgn): −3.074 | Fold Change (Pre- to Post-op) (gene Cgnl1): −8.2398 | Fold Change (Pre- to Post-op) (gene Chadl): −3.171 | Fold Change (Pre- to Post-op) (gene Chd3): −5.876 | Fold Change (Pre- to Post-op) (gene Chd4): −3.814 | Fold Change (Pre- to Post-op) (gene Chd5): −7.199 | Fold Change (Pre- to Post-op) (gene Chd6): −4.615 | Fold Change (Pre- to Post-op) (gene Chpf): −3.44 | Fold Change (Pre- to Post-op) (gene Chrm1): −3.086 | Fold Change (Pre- to Post-op) (gene Chrm2): −4.255 | Fold Change (Pre- to Post-op) (gene Chrnb2): −3.737 | Fold Change (Pre- to Post-op) (gene Chrnb4): −5.944 | Fold Change (Pre- to Post-op) (gene Chst1): −3.15 | Fold Change (Pre- to Post-op) (gene Chst8): −5.96 | Fold Change (Pre- to Post-op) (gene Chst11): −4.644 | Fold Change (Pre- to Post-op) (gene Chst14): −3.582 | Fold Change (Pre- to Post-op) (gene Chst15): −4.432 | Fold Change (Pre- to Post-op) (gene Cic): −7.164 | Fold Change (Pre- to Post-op) (gene Cit): −4.43 | Fold Change (Pre- to Post-op) (gene Clca1): −3.554 | Fold Change (Pre- to Post-op) (gene Clip1): −4.327 | Fold Change (Pre- to Post-op) (gene Clmn): −4.752 | Fold Change (Pre- to Post-op) (gene Clstn1): −3.195 | Fold Change (Pre- to Post-op) (gene Clstn2): −3.437 | Fold Change (Pre- to Post-op) (gene Cmip): −6.16 | Fold Change (Pre- to Post-op) (gene Cmklr1): −5.115 | Fold Change (Pre- to Post-op) (gene Cnnm1): −4.203 | Fold Change (Pre- to Post-op) (gene Cnnm3): −3.437 | Fold Change (Pre- to Post-op) (gene Cnot3): −4.042 | Fold Change (Pre- to Post-op) (gene Cntn1): −3.899 | Fold Change (Pre- to Post-op) (gene Col1a1): −5.343 | Fold Change (Pre- to Post-op) (gene Col4a1): −4.982 | Fold Change (Pre- to Post-op) (gene Col4a2): −7.238 | Fold Change (Pre- to Post-op) (gene Col5a3): −3.185 | Fold Change (Pre- to Post-op) (gene Col6a1): −3.172 | Fold Change (Pre- to Post-op) (gene Col6a2): −4.259 | Fold Change (Pre- to Post-op) (gene Col6a4): −4.048 | Fold Change (Pre- to Post-op) (gene Col9a2): −6.261

— patent publication US10857167B2, “Use of oligosaccharide compositions to enhance weight gain” (Children's Hospital Medical Center, priority 2015, dated 2020)
